Measurements reported in paper PMC11377572.
These are yes or no findings as the source states them, for the method shown. In cells and extracts the contact can be indirect. Some binding calls cover weakened binding; strength is not graded here.

Protein sequences, listed by entry. Tags and fused reporters are not part of them.
UniProt Q6A4J8: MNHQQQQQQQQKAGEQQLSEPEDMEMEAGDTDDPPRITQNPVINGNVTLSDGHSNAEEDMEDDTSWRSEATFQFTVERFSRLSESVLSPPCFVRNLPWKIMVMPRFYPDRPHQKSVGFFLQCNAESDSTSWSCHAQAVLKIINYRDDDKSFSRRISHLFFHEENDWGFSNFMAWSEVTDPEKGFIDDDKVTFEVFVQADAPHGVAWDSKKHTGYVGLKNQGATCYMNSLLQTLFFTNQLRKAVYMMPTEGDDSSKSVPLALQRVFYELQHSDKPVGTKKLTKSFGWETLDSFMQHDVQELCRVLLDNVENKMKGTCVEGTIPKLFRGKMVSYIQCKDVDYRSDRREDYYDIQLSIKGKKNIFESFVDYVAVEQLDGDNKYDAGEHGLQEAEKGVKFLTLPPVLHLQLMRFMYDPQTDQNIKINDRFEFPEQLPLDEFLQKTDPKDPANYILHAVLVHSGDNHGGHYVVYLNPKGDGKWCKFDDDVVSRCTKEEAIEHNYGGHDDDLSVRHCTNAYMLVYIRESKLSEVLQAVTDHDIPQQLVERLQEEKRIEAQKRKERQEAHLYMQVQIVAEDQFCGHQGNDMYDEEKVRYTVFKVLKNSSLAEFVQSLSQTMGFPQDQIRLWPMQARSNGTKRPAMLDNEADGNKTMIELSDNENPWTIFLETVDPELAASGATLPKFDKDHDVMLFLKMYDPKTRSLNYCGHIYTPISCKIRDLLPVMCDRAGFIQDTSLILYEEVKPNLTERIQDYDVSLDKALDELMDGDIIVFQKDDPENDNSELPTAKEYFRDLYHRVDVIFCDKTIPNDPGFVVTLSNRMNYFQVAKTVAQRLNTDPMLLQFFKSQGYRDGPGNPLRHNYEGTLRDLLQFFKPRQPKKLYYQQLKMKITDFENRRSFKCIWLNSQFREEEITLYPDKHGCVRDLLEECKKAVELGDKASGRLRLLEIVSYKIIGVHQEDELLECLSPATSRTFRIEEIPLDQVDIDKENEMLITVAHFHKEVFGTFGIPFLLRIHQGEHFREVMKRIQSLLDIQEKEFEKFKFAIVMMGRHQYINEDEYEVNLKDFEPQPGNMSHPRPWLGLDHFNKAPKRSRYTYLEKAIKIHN
UniProt O09106: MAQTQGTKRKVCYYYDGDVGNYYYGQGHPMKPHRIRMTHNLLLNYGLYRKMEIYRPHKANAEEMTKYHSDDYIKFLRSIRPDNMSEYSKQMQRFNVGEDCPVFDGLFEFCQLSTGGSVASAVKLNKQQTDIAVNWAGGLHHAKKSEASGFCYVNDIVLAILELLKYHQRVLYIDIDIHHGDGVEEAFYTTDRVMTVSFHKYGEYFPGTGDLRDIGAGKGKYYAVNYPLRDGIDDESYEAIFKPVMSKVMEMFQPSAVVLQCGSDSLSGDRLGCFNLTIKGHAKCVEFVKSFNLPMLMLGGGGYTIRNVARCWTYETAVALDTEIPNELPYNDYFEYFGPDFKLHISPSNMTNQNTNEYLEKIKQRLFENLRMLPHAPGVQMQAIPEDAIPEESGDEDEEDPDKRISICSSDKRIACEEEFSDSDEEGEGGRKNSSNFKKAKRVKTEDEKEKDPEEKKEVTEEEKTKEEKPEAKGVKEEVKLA
UniProt Q8CFE3: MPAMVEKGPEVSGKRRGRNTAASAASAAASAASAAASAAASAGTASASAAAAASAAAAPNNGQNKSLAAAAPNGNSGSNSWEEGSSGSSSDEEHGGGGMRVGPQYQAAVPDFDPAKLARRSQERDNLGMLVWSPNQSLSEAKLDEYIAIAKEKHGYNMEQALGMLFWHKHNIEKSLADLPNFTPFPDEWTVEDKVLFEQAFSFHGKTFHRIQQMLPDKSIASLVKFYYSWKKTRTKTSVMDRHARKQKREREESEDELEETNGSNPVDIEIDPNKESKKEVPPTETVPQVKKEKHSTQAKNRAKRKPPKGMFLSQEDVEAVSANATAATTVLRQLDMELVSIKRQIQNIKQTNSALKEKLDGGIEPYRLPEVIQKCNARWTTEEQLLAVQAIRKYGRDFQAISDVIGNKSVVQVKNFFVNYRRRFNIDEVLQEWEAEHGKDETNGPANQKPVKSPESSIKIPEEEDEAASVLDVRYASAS
UniProt Q8C796: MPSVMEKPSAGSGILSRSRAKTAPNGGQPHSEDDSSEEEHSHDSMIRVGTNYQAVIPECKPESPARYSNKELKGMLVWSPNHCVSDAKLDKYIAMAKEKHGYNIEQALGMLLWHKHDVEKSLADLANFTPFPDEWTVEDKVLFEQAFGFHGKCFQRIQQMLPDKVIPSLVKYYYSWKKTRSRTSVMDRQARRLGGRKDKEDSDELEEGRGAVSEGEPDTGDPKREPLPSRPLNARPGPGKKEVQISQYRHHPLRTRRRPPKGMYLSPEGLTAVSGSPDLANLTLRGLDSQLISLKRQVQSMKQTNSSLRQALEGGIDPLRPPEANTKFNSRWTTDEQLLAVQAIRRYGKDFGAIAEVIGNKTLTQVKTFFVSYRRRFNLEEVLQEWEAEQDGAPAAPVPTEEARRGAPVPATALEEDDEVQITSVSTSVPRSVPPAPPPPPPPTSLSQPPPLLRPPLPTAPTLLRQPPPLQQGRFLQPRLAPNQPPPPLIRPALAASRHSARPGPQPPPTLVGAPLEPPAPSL
UniProt P13864: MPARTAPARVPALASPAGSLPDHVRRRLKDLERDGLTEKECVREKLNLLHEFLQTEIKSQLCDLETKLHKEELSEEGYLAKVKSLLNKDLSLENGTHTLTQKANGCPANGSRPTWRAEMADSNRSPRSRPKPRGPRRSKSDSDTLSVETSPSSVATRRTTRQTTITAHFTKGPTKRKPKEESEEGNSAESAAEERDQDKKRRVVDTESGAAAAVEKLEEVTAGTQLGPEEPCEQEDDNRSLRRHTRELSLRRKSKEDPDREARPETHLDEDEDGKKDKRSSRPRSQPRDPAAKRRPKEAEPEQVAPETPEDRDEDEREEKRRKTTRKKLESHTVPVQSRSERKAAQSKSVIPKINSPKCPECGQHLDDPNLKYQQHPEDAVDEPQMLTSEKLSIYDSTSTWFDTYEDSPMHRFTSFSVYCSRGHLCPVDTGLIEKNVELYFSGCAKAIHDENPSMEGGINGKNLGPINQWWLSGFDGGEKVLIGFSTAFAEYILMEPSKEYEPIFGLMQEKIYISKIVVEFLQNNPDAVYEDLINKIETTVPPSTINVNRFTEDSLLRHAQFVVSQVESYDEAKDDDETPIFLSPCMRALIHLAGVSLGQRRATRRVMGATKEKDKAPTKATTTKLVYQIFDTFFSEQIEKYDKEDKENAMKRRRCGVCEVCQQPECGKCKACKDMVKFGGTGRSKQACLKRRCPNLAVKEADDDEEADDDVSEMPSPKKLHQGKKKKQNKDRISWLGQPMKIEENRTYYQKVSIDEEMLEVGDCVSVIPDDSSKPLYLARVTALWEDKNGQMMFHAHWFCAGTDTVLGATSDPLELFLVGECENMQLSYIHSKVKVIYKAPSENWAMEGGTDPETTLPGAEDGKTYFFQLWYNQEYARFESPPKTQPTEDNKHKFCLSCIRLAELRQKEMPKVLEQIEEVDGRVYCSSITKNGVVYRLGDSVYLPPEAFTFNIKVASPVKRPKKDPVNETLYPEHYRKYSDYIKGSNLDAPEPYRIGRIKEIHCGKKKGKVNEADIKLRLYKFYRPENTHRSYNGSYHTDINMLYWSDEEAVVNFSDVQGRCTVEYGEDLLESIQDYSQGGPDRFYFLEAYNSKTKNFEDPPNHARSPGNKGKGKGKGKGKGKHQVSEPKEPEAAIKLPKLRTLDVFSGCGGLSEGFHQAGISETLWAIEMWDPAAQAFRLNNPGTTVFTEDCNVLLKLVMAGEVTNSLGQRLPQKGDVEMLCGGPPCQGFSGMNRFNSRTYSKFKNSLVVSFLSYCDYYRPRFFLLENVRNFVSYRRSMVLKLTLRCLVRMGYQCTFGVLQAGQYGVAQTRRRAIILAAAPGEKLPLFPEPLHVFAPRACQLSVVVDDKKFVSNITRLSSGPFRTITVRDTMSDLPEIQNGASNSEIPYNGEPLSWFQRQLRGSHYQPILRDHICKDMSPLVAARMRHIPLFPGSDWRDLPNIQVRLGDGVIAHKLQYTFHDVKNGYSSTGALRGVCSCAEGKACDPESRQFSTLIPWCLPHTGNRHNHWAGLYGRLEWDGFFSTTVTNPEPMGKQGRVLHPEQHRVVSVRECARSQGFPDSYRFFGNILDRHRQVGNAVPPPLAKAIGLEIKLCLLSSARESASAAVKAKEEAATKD

How the values were obtained:
[1] = biological target: ubiquitin-specific peptidase 7 (USP7), endogenous in mouse ESCs (mouse (endogenous in CCE mouse ESCs)) (UniProt Q6A4J8); assay: co-IP; USP7 immunoprecipitation from whole cell extract of Lsd1 KO mouse ESCs (DNMT1 and UHRF1 protein levels are low in these cells), immunoblots
[2] = biological target: HDAC1, endogenous in mouse ESCs (mouse (endogenous in CCE mouse ESCs)) (UniProt O09106); assay: co-IP; HDAC1 immunoprecipitation (anti-HDAC1, Abcam ab19845, 4 ug) from whole cell extract of WT mouse ESCs, immunoblots of DNMT1, UHRF1 and LSD1
[3] = biological target: RCOR1, endogenous in mouse ESCs (mouse (endogenous in CCE mouse ESCs)) (UniProt Q8CFE3); assay: co-IP; immunoprecipitation with RCOR1 (Novus NBP3-16225, 5 ug) or RCOR2 (Proteintech 23969-1-AP, 5 ug) antibodies from mouse ESC extract, immunoblots (Supplementary Fig. 9E, F)
[4] = biological target: RCOR2, endogenous in mouse ESCs (mouse (endogenous in CCE mouse ESCs)) (UniProt Q8C796); assay: as above
[5] = biological target: ubiquitin-specific peptidase 7 (USP7), endogenous in mouse ESCs (mouse (endogenous in CCE mouse ESCs)) (UniProt Q6A4J8); assay: co-IP; USP7 immunoprecipitation (anti-USP7, Invitrogen PA5-34911, 4 ug; protein A magnetic beads) from whole cell extract of WT, LSD1^WT and LSD1^MUT mouse ESCs, immunoblots; also with DNase or RNase treatment and after TSA or SAHA treatment of the cells

“DNA (cytosine-5)-methyltransferase 1 (DNMT1), endogenous in mouse ESCs (from UniProt P13864 1-1620)” was tested, and the binding [1] was “binds weakly”, the binding [2] was “no binding” and the binding [3] was “no binding”. The binding [4] was “no binding” and the binding [5] was “binds”.
In the case of “HDAC1, endogenous in mouse ESCs (from UniProt O09106 1-482) (enzyme)”, the binding [3] is reported as “binds” and the binding [4] is reported as “binds”.
